According to publication PMC10562424:
These are yes or no findings as the source states them, for the method shown. Binding seen in cells or lysates may run through a third protein. A yes stands for co-enrichment or nearness to the bait. Other partners may have been found.

Chains of the proteins cited; added tags and fusions are not shown.
UniProt Q8N371: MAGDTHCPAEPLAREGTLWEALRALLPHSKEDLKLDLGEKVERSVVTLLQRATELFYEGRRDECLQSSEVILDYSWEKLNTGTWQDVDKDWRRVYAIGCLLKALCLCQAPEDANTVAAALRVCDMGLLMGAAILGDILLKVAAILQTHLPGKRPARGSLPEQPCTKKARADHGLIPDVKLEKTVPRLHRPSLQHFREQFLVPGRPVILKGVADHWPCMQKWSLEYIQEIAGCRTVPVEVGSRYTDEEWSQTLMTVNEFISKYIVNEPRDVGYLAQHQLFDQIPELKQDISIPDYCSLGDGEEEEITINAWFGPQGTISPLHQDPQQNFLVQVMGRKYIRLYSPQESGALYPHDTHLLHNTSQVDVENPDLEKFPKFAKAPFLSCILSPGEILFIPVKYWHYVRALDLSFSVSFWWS
UniProt Q7Z6Z7: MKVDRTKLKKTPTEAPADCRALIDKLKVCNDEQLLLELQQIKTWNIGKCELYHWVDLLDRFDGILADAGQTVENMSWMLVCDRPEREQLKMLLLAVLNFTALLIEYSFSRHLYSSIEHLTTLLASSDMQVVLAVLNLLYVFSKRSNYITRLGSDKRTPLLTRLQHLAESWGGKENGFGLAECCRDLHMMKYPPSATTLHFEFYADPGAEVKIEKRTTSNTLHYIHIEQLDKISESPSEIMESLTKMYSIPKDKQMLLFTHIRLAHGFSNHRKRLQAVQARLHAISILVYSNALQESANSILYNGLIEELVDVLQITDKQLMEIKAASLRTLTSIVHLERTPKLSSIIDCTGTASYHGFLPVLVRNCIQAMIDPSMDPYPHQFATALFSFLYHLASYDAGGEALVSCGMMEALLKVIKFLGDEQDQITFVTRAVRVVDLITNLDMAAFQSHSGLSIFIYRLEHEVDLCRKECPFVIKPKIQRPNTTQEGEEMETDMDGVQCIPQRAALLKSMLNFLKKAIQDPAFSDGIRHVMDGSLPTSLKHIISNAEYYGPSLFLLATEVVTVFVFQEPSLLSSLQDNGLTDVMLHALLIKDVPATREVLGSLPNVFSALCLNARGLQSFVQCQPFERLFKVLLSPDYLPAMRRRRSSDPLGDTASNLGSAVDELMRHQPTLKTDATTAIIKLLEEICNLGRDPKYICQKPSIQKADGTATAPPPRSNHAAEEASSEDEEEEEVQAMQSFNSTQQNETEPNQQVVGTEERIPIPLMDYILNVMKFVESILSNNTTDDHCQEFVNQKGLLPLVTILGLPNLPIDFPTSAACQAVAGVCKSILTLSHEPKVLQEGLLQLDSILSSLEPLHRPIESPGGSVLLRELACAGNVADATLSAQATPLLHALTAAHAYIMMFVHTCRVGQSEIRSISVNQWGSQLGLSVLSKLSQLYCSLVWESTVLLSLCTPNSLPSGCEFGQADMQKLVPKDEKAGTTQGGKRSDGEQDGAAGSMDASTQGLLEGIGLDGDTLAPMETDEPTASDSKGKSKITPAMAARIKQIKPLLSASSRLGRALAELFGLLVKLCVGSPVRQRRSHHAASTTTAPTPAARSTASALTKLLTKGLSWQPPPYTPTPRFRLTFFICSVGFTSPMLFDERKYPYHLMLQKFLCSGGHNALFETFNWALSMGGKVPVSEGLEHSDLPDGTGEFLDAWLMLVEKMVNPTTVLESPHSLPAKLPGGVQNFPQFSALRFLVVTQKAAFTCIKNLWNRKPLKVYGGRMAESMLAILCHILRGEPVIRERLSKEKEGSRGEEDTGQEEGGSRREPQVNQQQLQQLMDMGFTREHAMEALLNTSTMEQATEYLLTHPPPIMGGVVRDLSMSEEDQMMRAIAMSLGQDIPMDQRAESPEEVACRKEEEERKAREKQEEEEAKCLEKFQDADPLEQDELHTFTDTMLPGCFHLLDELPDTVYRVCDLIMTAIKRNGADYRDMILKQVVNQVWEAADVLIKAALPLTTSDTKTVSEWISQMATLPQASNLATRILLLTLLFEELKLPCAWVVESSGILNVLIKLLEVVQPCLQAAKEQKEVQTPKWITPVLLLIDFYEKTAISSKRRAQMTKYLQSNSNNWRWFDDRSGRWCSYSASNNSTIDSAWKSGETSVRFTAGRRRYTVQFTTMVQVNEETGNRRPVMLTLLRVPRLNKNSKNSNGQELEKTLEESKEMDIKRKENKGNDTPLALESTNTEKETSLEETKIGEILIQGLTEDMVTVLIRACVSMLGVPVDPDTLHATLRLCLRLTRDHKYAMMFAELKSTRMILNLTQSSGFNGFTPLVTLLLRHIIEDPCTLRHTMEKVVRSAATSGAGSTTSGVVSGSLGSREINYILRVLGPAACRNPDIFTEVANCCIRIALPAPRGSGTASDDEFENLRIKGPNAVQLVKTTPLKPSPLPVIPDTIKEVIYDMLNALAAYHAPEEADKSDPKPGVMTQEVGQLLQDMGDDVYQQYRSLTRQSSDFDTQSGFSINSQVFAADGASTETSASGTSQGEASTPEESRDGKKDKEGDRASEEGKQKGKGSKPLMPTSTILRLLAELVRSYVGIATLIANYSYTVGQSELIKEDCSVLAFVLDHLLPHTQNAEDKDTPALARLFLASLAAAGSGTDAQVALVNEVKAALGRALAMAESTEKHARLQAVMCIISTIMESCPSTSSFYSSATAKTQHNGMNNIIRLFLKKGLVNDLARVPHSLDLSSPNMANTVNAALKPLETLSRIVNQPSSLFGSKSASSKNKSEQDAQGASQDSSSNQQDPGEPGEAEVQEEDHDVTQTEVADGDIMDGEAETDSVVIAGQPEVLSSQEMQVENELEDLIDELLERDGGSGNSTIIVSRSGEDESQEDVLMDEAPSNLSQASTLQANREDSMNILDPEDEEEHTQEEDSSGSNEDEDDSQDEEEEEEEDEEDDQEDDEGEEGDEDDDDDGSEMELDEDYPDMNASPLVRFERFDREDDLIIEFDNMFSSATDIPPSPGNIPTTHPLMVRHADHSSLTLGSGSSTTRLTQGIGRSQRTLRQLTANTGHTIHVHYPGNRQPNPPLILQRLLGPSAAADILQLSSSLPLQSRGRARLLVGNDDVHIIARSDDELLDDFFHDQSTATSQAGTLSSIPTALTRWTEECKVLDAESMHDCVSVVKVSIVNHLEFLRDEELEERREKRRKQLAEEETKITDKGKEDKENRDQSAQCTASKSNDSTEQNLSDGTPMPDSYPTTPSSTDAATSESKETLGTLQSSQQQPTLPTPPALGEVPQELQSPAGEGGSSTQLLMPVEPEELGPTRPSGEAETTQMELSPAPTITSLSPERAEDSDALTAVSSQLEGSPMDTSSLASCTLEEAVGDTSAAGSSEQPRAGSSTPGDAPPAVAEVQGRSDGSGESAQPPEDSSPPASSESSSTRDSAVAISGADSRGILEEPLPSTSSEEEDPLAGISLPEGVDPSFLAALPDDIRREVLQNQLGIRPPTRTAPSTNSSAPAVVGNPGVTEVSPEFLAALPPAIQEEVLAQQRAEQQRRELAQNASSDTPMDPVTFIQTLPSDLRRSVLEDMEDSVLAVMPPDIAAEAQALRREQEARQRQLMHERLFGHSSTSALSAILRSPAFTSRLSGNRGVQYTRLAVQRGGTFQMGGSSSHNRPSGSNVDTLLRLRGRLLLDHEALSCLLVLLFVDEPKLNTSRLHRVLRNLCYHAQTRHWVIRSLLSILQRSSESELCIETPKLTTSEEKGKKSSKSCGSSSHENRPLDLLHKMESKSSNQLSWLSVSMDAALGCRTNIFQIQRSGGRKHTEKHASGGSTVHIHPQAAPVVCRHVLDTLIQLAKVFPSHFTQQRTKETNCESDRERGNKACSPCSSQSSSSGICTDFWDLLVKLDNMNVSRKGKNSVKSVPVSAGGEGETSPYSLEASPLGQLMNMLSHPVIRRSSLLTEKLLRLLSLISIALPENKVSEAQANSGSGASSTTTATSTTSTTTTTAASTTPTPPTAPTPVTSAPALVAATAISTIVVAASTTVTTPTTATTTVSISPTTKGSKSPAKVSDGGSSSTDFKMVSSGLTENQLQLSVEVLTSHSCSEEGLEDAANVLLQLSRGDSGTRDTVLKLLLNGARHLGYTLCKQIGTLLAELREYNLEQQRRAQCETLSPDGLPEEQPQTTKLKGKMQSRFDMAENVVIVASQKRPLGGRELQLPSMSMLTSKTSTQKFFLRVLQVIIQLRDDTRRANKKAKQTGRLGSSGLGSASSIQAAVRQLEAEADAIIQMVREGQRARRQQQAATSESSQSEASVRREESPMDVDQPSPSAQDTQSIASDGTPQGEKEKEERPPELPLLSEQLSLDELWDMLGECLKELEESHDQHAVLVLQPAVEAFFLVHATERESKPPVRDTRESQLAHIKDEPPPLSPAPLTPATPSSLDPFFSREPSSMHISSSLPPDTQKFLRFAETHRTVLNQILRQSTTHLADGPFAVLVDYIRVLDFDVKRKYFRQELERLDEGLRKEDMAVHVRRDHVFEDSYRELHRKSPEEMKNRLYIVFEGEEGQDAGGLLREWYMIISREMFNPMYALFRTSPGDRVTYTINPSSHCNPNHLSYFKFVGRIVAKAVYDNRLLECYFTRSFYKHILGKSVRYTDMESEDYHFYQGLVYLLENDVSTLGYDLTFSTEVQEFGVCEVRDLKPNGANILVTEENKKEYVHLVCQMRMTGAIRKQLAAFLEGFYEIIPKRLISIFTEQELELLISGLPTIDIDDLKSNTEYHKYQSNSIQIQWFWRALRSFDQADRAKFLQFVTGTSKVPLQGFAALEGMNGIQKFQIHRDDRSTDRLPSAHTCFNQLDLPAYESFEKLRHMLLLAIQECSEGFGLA

Molecular target: JmjC domain-containing 5 (JMJD5), bait of the mass spectrometry-based proteomic analysis (human) (UniProt Q8N371)
Assay: affinity purification with mass spectrometry; mass spectrometry-based proteomic analysis of JMJD5-associated proteins; bait, cells and conditions not told

binding: binds
Substance: HECT-domain E3 ligase HUWE1, found with JMJD5 by mass spectrometry (from UniProt Q7Z6Z7 1-4374) (enzyme)
